Measurements reported in PubChem BioAssay AID1224828 (NIAID, 2016).
Shown is one part, drawn at random, of about 17,000 deposited reagents. 762 of them (4.5%) count as active. 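Active calls include both raised and lowered p65 entry, mostly lowered; wells with fewer than 50 cells lack a z-score.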 The raw values are shown without normalisation. Unmarked entries are inactive.

- Purpose: 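Find genes required for NF-kappaB p65 moving into the nucleus after LPS in mouse macrophages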 (primary screen)
- System: mouse RAW264.7 G9 macrophage reporter cells (GFP-p65, Tnf promoter-mCherry)
- Knock-down reagent: siRNA pool against mouse genes, 100 nM
- Duration: 2 days siRNA transfection, then 40 min LPS before fixation
- Treatment: LPS (Salmonella minnesota R595) at 10 ng/ml
- Read-out: 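Imaged p65 nuclear translocation ratio, normalised to the plate median, converted to robust z-scores and averaged across two replicates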
- Direction: p65 translocation robust z-score: higher = more nuclear NF-kappaB p65 after LPS than the plate median; nuclear/cytoplasmic p65 ratio: higher = more nuclear NF-kappaB p65
- Hit rule: 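Active if robust z is above 3.3 (negative regulators) or below -1.56, the Tlr4 control median (positive regulators); activity score 50 or more; control wells not called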
- Calls: active = hit (p65 shift raised or lowered); inactive = no clear change

Depletion of Acacb (acetyl-Coenzyme A carboxylase beta) resulted in: p65 translocation robust z-score 1.39; nuclear/cytoplasmic p65 ratio, rep 1 = 1.87; nuclear/cytoplasmic p65 ratio, rep 2 = 1.77; low cell count flag enough cells to score.
Depletion of Edf1 (endothelial differentiation-related factor 1) resulted in: p65 translocation robust z-score -2.2 (active); nuclear/cytoplasmic p65 ratio, rep 1 = 0.992; nuclear/cytoplasmic p65 ratio, rep 2 = 1.24; low cell count flag enough cells to score.
After knock-down of Or1e30 (olfactory receptor family 1 subfamily E member 30), the record shows p65 translocation robust z-score -0.05; nuclear/cytoplasmic p65 ratio, rep 1 = 1.68; nuclear/cytoplasmic p65 ratio, rep 2 = 1.35; low cell count flag enough cells to score.
Ssx2ip (SSX family member 2 interacting protein) showed p65 translocation robust z-score 0.09; nuclear/cytoplasmic p65 ratio, rep 1 = 1.39; nuclear/cytoplasmic p65 ratio, rep 2 = 1.27; low cell count flag enough cells to score.
For Wwtr1 (WW domain containing transcription regulator 1), the values are nuclear/cytoplasmic p65 ratio, rep 1 = 1.25; nuclear/cytoplasmic p65 ratio, rep 2 = 1.29; low cell count flag fewer than 50 cells per well; well left out of scoring.
Against Cd63 (CD63 antigen) the deposit lists p65 translocation robust z-score -0.23; nuclear/cytoplasmic p65 ratio, rep 1 = 1.42; nuclear/cytoplasmic p65 ratio, rep 2 = 1.37; low cell count flag enough cells to score.
With knock-down of Lhfpl1 (lipoma HMGIC fusion partner-like 1), the record shows nuclear/cytoplasmic p65 ratio, rep 1 = 1.87; nuclear/cytoplasmic p65 ratio, rep 2 = 1.49; low cell count flag fewer than 50 cells per well; well left out of scoring.

2 entries already listed, sorted by “nuclear/cytoplasmic p65 ratio, rep 1”, descending:
Lhfpl1 (lipoma HMGIC fusion partner-like 1) — nuclear/cytoplasmic p65 ratio, rep 1: 1.87; nuclear/cytoplasmic p65 ratio, rep 2: 1.49; low cell count flag: fewer than 50 cells per well; well left out of scoring
Cd63 (CD63 antigen) — p65 translocation robust z-score: -0.23; nuclear/cytoplasmic p65 ratio, rep 1: 1.42; nuclear/cytoplasmic p65 ratio, rep 2: 1.37; low cell count flag: enough cells to score

The listing continues:
Riok1 (RIO kinase 1) scored p65 translocation robust z-score 0.41; nuclear/cytoplasmic p65 ratio, rep 1 = 1.8; nuclear/cytoplasmic p65 ratio, rep 2 = 1.39; low cell count flag enough cells to score.
Wscd2 (WSC domain containing 2) gave nuclear/cytoplasmic p65 ratio, rep 1 = 1.45; nuclear/cytoplasmic p65 ratio, rep 2 = 1.54; low cell count flag fewer than 50 cells per well; well left out of scoring.
Against Mgat4e (MGAT4 family, member E) the deposit lists nuclear/cytoplasmic p65 ratio, rep 1 = 1.08; nuclear/cytoplasmic p65 ratio, rep 2 = 1.06; low cell count flag fewer than 50 cells per well; well left out of scoring.
Against Nkx1-2 (NK1 homeobox 2), the entry reads p65 translocation robust z-score 0.03; nuclear/cytoplasmic p65 ratio, rep 1 = 1.48; nuclear/cytoplasmic p65 ratio, rep 2 = 1.74; low cell count flag enough cells to score.
For Ulk2 (unc-51 like kinase 2) the deposit lists p65 translocation robust z-score 0.48; nuclear/cytoplasmic p65 ratio, rep 1 = 1.68; nuclear/cytoplasmic p65 ratio, rep 2 = 1.44; low cell count flag enough cells to score.
